No constants are given. Whether binding was seen depends on the method and setting. For part of these data: In cells and extracts the contact can be indirect. Some binding calls cover weakened binding; strength is not graded here. For part of these data: Sequences can lack the tags named with a protein.
Tests used:
[1] = target: Akt1 (endogenous, in lysates of human Caco-2 or SW620 colon cancer cells) (human) (UniProt P31749); assay: competition: free peptide against full length GST-FAK beads for Akt1 in a pull-down; binding to Akt1 is shown only through the competition
[2] = target: Akt1 (endogenous, in lysates of human Caco-2 or SW620 colon cancer cells) (human) (UniProt P31749); assay: competition: free peptide at 160 µM against full length GST-FAK beads for Akt1 in a pull-down (n=12-14)
[3] = target: Akt1 (endogenous, in lysates of human Caco-2 or SW620 colon cancer cells) (human) (UniProt P31749); assay: GST pull-down of Akt1 by truncated versions of NT1-2-2
[4] = target: Akt1 (endogenous, in lysates of human Caco-2 or SW620 colon cancer cells) (human) (UniProt P31749); assay: GST pull-down of Akt1 by truncated versions of NT1-2-2, densitometry normalised to NT1-2-2
[5] = target: Akt1 (endogenous, in lysates of human Caco-2 or SW620 colon cancer cells) (human) (UniProt P31749); assay: GST pull-down of Akt1, against the GST control
[6] = target: Akt1 (endogenous, in lysates of human Caco-2 or SW620 colon cancer cells) (human) (UniProt P31749); assay: GST pull-down of Akt1 from cell lysate by GST-FAK truncations on beads, western blot
[7] = target: Akt1 (endogenous, in lysates of human Caco-2 or SW620 colon cancer cells) (human) (UniProt P31749); assay: competition: free peptide against GST-FAK-NT1 beads for Akt1 in a pull-down (n=4)
[8] = target: Akt1 (endogenous, in lysates of human Caco-2 or SW620 colon cancer cells) (human) (UniProt P31749); assay: competition: free peptide against GST-FAK-NT1 beads for Akt1 in a pull-down; binding to Akt1 is shown only through the competition

Chains of the proteins cited; added tags and fusions are not shown.
UniProt P31749: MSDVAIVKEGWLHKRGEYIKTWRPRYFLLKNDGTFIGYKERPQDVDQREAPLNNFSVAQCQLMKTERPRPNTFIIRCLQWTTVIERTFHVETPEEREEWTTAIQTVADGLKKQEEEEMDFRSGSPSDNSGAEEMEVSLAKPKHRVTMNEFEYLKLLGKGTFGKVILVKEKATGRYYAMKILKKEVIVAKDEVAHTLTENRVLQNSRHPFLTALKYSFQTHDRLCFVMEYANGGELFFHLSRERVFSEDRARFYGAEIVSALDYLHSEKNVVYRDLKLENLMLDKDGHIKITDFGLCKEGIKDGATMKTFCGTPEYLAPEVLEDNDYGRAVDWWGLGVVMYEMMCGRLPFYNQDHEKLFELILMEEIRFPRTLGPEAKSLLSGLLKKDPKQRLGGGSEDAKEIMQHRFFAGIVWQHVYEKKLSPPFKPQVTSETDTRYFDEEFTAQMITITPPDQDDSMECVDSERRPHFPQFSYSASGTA

| Binder | binding [1] | binding [2] | binding [3] | binding [4] | also measured |
| --- | --- | --- | --- | --- | --- |
| LAHPPEEWKYELRI (peptide, not shown: a dimerising Fc or GST) [GST-FAK NT1-2-2 Truncation 3 (β-strand 4 and α-helix 2 truncated)] |  |  | binds | binds |  |
| EVHWVHLDMGVSSVREKYELAHPPEEWKYELRI (peptide, not shown: a dimerising Fc or GST) [GST-FAK-NT1-2-2 (FAK residues 94-126)] |  |  |  |  | binding [5]: binds; binding [6]: binds |
| EVHWVHLDMGVSSVREKYELAHPPEEWKYELRI [Pep-FAK-NT1-2-2 (wild-type 33 amino acid peptide)] |  |  |  |  | binding [7]: binds; binding [8]: binds |
| VSSVREKYELAHPPEEWKYELRI (peptide, not shown: a dimerising Fc or GST) [GST-FAK NT1-2-2 Truncation 1 (β-strand 4 truncated)] |  |  | binds | binds |  |
| VSSVREKYELAHPPEE (peptide, not shown: a dimerising Fc or GST) [GST-FAK NT1-2-2 Truncation 2 (β-strand 4 and β-strand 5 truncated)] |  |  | binds | binds |  |
| LAHPPEE (peptide, not shown: a dimerising Fc or GST) [GST-FAK NT1-2-2 Truncation 4 (β-strand 4, β-strand 5 and α-helix 2 truncated; short helix LAHPPEE)] |  |  | binds | binds |  |

More lines, main results first:

| binding [1] | binding [2] | binding [3] | binding [4] | Binder | also measured |
| --- | --- | --- | --- | --- | --- |
| binds | binds |  |  | LAHPSEE [mutant FAK short helix peptide LAHPSEE] |  |
| binds | binds |  |  | LAHPPEE [wild-type FAK short helix peptide LAHPPEE] |  |
| binds | binds |  |  | AAHCGEE [mutant FAK short helix peptide AAHCGEE] |  |
